PubChem BioAssay AID2551 (National Center for Advancing Translational Sciences (NCATS), 2010)
Among all 310,000 compounds or so, about 17,000 (5.5%) were called active. The inconclusive results got no clear call from the source; some entries with a clear call stand among them for comparison. Calls come from the whole dose curve; as a rule, active = well fitted inhibition curve with a large enough effect; inconclusive = small, poorly fitted or top-dose-only effect, or effect the other way; inactive = no such curve, though single readings can be large or run the other way. Potencies of inconclusive entries are doubtful fits and often do not repeat.

Chains of the proteins cited; added tags and fusions are not shown. Lines headed by an entry give the natural chain unless they say otherwise; changes in a name come on top.
UniProt P51450: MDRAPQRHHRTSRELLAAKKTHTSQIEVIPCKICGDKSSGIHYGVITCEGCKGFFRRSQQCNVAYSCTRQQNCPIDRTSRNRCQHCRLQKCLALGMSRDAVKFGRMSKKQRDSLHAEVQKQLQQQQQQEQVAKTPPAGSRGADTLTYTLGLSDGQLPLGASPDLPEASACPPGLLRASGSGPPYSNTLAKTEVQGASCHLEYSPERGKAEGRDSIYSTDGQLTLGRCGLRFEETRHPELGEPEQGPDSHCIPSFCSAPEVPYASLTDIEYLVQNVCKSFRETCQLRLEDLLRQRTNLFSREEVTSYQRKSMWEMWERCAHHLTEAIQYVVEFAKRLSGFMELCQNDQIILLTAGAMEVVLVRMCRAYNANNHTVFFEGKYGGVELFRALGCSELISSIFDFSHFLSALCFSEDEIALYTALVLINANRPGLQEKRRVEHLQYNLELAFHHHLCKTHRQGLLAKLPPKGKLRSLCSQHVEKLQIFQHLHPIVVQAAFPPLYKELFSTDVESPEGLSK

Biological target: Nuclear receptor ROR-gamma (Mus musculus) (UniProt P51450)
Test: qHTS for inhibitors of ROR gamma transcriptional activity; note: nearly all actives have a fitted effect of over 60% in size
Conditions: Drosophila S2 Gal4-RORgamma UAS-luciferase reporter, 20 h; activity change, negative = inhibition: at 53.6 µM (top of the series)
Procedure, shortened: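 Using a luciferase readout, inhibitors were identified by reduced reporter activity in Drosophila cells coexpressing a copper-inducible Gal4–ROR gamma fusion and UAS-driven Photinus luciferase, incubated 20 hr after 700 uM copper sulfate.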
% is set by controls: 0 for no effect and ±100 for the full control effect; potency is the fitted concentration of half-maximal effect.

Potency, inconclusive:
Cc1ccc(S(=O)(=O)/N=C2/NC(=O)/C(=C/c3ccccc3)S2)cc1 10 µM [activator, single point]
CCOc1ccc(CNC(=O)CCS(=O)(=O)c2ccc3c(c2)oc(=O)n3C)cc1 35.5 µM [inhibitor, single point]
CCNc1nc(SCC(=O)Nc2ccc(Cl)c(Cl)c2)nc(N2CCOCC2)n1 20 µM [activator, partial curve]
Cc1nc(NC(C)c2ccccc2)c2oc3ccccc3c2n1 (configuration not stated) 22.4 µM [inhibitor, single point]
COCCCn1c2nc3ccccc3nc2c2c(=O)n(Cc3ccc(Cl)cc3)c(C)nc21 6.31 µM [inhibitor, single point]
COc1ccc(C(=O)NC(=S)Nc2ccccc2N2CCCCC2)cc1[N+](=O)[O-] 1.58 µM [inhibitor, single point]
Cc1cccnc1NC(=O)C1c2ccccc2Oc2ccccc21 12.6 µM [inhibitor, partial curve]
Cc1ccc(Cn2c3ccccc3c3cn[nH]c(=O)c32)cc1 6.31 µM [inhibitor, single point]
Cc1cc(S(=O)(=O)N2CCOCC2)ccc1NC(=O)c1ccc(F)cc1 14.1 µM [activator, single point]
CCOC(=O)[C@@H]1[C@H]2COc3cc(OC)ccc3[C@@H]2N2C(=O)N(c3ccc(C(F)(F)F)cc3)C(=O)[C@@]12C 15.8 µM [inhibitor, single point]
COc1ccc(C(C[N+](=O)[O-])c2c(C)cc3ccccn23)cc1 (configuration not stated) 35.5 µM [inhibitor, single point]
O=C(CSc1nc2c(c(=O)n1-c1ccc(Br)cc1)SCC2)Nc1nccs1 17.8 µM [inhibitor, single point]
O=C(NCc1ccccc1)C1=C[C@@H](c2csc3ccccc23)C[C@@H](OCc2ccc(CO)cc2)O1 3.55 µM [activator, full curve, poor fit]
O=C(CCN1C(=O)C2C3C=CC(C3)C2C1=O)NCC1CCCO1 (configuration not stated) 7.94 µM [activator, partial curve]
Cc1no[n+]([O-])c1COc1ccc(/C=N/n2nnnc2N)cc1 12.6 µM [activator, single point]
CCNc1nc2c(c(=O)n(C)c(=O)n2C)n1CCCc1ccccc1 4.47 µM [activator, single point]
COc1cc(NC(=O)c2ccc(Cl)cc2)c(Cl)cc1NC(=O)c1cccnc1 35.5 µM [inhibitor, single point]
CCCCNC(=O)[C@H]1C[C@H]1[C@@H](O)[C@H](CO)NC(=O)[C@H](COCc1ccccc1)NC(=O)OC(C)(C)C 3.98 µM [activator, single point]
C/C(=N\N=C(/N)SC1CC(=O)N(c2ccccc2)C1=O)c1cccs1 (configuration not stated) 15.8 µM [activator, single point]
O=C(c1nnc(-c2ccccc2)o1)C1CC1 20 µM [activator, single point]
COc1ccccc1NCC(=O)N/N=C/C=C/c1ccccc1 35.5 µM [inhibitor, single point]
COc1ccc(NC(=O)CSc2nc3ccc(OC)cc3[nH]2)cc1 35.5 µM [activator, single point]
COc1ccc(N2C(=O)C(CC(=O)Nc3ccccc3)N(Cc3ccccn3)C2=S)cc1 (configuration not stated) 11.2 µM [activator, partial curve]
CC(C)Cc1ccc(C(C)C(=O)Nc2ncccn2)cc1 (configuration not stated) 14.1 µM [activator, single point]
O=C(CNC(=O)c1ccco1)OCc1c(F)cccc1Cl 6.31 µM [inhibitor, single point]
CC(=O)Nc1nc2ccccc2n1CCN(C)C 15.8 µM [inhibitor, single point]
COCOc1cc(OC)ccc1C(=O)/C=C/c1ccc([N+](=O)[O-])cc1 35.5 µM [inhibitor, single point]
CCOC(=O)c1ccc(NC(=O)CCC(=O)OC)cc1 35.5 µM [activator, single point]
COc1ccc(C(=O)Sc2ccc(Cl)cc2)cc1OC 12.6 µM [inhibitor, single point]
O=C(O)c1ccc(OCC(O)Cn2c3ccccc3c3ccccc32)cc1 (configuration not stated) 11.2 µM [activator, single point]
O=C(Nc1ccccc1C(F)(F)F)c1cc(-c2cccc(O)c2)on1 11.2 µM [inhibitor, partial curve]
O=C(NCC1(c2ccccc2)CCCC1)C(=O)N1CCOCC1 0.158 µM [activator, full curve, poor fit]
COc1ccc(CN2CCCC(C(=O)c3ccc(Cl)cc3)C2)cc1Cn1cccn1 (configuration not stated) 17.8 µM [inhibitor, single point]
COc1ccc(C2CC(=O)Oc3ccc(C(C)(C)C)cc32)cc1 (configuration not stated) 44.7 µM [activator, single point]
CN1CC(c2ccccn2)C2(SC(=S)N(Cc3ccccc3)C2=O)C12C(=O)Nc1ccccc12 (configuration not stated) 31.6 µM [inhibitor, single point]
O=C(NCCCn1ccnc1)c1nc(Cn2cc([N+](=O)[O-])cn2)no1 35.5 µM [inhibitor, single point]
CC1CN(S(=O)(=O)c2ccc(C(=O)Nc3nc(-c4cc5ccccc5o4)cs3)cc2)CC(C)O1 (configuration not stated) 12.6 µM [inhibitor, single point]
Nc1c(C(=O)C2CC2)sc2nc(-c3ccccc3)cc(C(F)(F)F)c12 31.6 µM [inhibitor, single point]
Cc1ccc(C)c(NC(=O)c2nc(-c3ccccc3)n(-c3ccccc3)n2)c1 25.1 µM [activator, single point]
COc1cc2c(cc1NC(=O)C(C)OC(=O)C1CC(=O)N(Cc3ccco3)C1)oc1ccccc12 (configuration not stated) 15.8 µM [activator, single point]
CCNc1nc(-c2ccc(Cl)cc2)cs1 12.6 µM [inhibitor, single point]
COc1ccc(/C=C/C(=O)c2ccncc2)c2ccccc12 11.2 µM [inhibitor, single point]
COC(=O)CN1C2(C#N)CCCCC2CC2CCCCC21C#N (configuration not stated) 3.98 µM [inhibitor, single point]
Cc1ccc(-c2nnc(SCC#CCOC(=O)c3cccs3)o2)cc1 35.5 µM [inhibitor, single point]

3 compounds out of the list, sorted by number of heavy atoms, descending.
Potency, inconclusive:
COC(=O)CN1C2(C#N)CCCCC2CC2CCCCC21C#N (configuration not stated) 3.98 µM [inhibitor, single point]
CC(C)Cc1ccc(C(C)C(=O)Nc2ncccn2)cc1 (configuration not stated) 14.1 µM [activator, single point]
COc1ccc(C(=O)Sc2ccc(Cl)cc2)cc1OC 12.6 µM [inhibitor, single point]

Random excerpt: 2 compounds from above, in no set order.
Potency, inconclusive:
Cc1cc(S(=O)(=O)N2CCOCC2)ccc1NC(=O)c1ccc(F)cc1 14.1 µM [activator, single point]
CCNc1nc(-c2ccc(Cl)cc2)cs1 12.6 µM [inhibitor, single point]

Next part:

Potency, inactive:
COc1ccc(CNc2ncnc3c2[nH]c2cc(OC)c(OC)cc23)cc1
C/C(=N\NS(=O)(=O)c1ccc(C)cc1)c1cc2ccccc2oc1=O
Cc1nc2c(C)c(C)c(C)c(C)c2nc1C
O=C(O)CCCn1cc(NC(=O)c2c(F)cccc2F)cn1
COC(=O)c1ccc(NC(=O)CN(C2CCCCC2)S(C)(=O)=O)cc1
COc1ccc(OC)c2c(C)cc(N3CCCCCC3)nc12
S=c1[nH]ncn1/N=C/c1ccccn1
C=CCNC(=S)NNC(=O)C(CC(C)C)CC(C)O (configuration not stated)
COc1ccccc1-c1nccc(NCc2cccc(C)c2)n1
CN(CC(=O)Nc1ccc(F)cc1)C(=O)CN1C(=O)NC2(CCCc3ccccc32)C1=O (configuration not stated)
CCc1[nH]nc(C(=O)NC2CCCc3c2cnn3-c2cc(C)cc(C)c2)c1C (configuration not stated)
CNC(=O)c1ccccc1Sc1cccc2cccc(C(=O)O)c12
O=C(c1ccc2nc(-c3ccco3)c(-c3ccco3)nc2c1)N1CCN(c2ccccc2)CC1
O=C(/C=C/c1cccc([N+](=O)[O-])c1)N1CCN(Cc2ccc3c(c2)OCO3)CC1
CCCCCCCCCCCCCCC1CO1 (configuration not stated)
CCC(C)(C)NC(=O)Cc1ccc(Cl)cc1
COc1cc(C(=O)NCc2ccco2)c(Br)c(OC)c1OC

Potency, active:
Cc1ccccc1C(=O)NC(=S)NCC(=O)c1ccccc1 11.2 µM
Cc1ccn2c(NC3CCCC3)c(-c3cccs3)nc2c1 10 µM
Cc1ccc(S(=O)(=O)N2CCOCC2)cc1C(=O)NC(=S)N1CC(C)OC(C)C1 (configuration not stated) 4.47 µM
CC(=O)NC12CC3CC(C1)CC(C(=O)OCC(=O)c1ccc4c(c1)OCCO4)(C3)C2 14.1 µM
CCOc1ccc(-c2n[nH]c(C)c2Oc2ccc(OC)cc2)c(O)c1 2.24 µM
NC(=S)NC(=O)/C=C/c1ccccc1 7.94 µM
C/C(Cn1nnc([N+](=O)[O-])n1)=N\NC(=O)c1ccc(O)cc1 2.82 µM
COc1ccc2oc(-c3ccc(O)cc3)cc(=O)c2c1 25.1 µM
CC(=O)Nc1ccc(C(=O)Nc2nc(-c3ccccn3)cs2)cc1 7.94 µM
Cc1ccc(COc2ccsc2-c2n[nH]c(=S)n2C)cc1 2.82 µM

Activity change, negative = inhibition, inactive:
CN1CCN(C2=Nc3ccccc3Sc3ccc(Cl)cc32)CC1 7.01% [at 10 µM]
